Data from PubChem BioAssay (EPA / NIEHS).
The inconclusive results got no clear call from the source; some entries with a clear call stand among them for comparison. A potency beside an inconclusive call is a rough fit, not a confirmed value. Activity calls are given as the source filed them. The calls were made as follows: active = hit-call score of the fitted dose curve at least 0.9, where 1 is the maximum; inconclusive = response in the unintended direction; inactive = score below 0.9.

By UniProt entry, the sequences of proteins in these tests, tags left out. Where a name states a change or a piece, a line headed by the entry shows the natural chain unless it says otherwise.
UniProt P11473: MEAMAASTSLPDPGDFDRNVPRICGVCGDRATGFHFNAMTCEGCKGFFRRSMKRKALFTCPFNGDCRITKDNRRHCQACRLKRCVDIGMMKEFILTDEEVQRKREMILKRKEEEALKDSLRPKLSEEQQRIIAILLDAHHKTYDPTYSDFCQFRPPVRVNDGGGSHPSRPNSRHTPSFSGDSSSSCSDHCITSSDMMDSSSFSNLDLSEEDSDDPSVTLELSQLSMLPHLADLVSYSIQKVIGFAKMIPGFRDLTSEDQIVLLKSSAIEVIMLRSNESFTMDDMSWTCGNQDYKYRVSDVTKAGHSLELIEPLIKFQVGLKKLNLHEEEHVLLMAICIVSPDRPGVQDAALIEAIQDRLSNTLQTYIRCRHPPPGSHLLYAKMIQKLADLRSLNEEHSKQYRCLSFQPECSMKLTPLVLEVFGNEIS

Target: human Vitamin D Receptor (VDR), VDR (gene 7421) (UniProt P11473)
Experiment: ATG_VDR_TRANS: Attagene TRANS-FACTORIAL HepG2 Assay for human Vitamin D Receptor (VDR) (AID 2283022)
Protocol: ATG_TRANS is a cell-based, multiplexed-readout assay that uses HepG2, a human liver cell line, with measurements taken at 24 hours after chemical dosing in a 24-well plate.ATG_VDR_TRANS is one of 30 assay component(s) measured or calculated from the ATG_TRANS assay. It is designed to make measurements of mRNA induction, a form of inducible reporter, as detected with fluorescence intensity signals by Reverse transcription polymerase chain reaction (RT-PCR) and Capillary electrophoresis technology.Data from the assay component ATG_VDR_TRANS was analyzed into 1 assay endpoint. This assay endpoint, ATG_VDR_TRANS, was analyzed in the positive analysis fitting direction relative to DMSO as the negative control and baseline of activity. Using a type of inducible reporter, measures of mRNA for gain-of-signal activity can be used to understand the reporter gene at the transcription factor-level as they relate to the gene VDR. Furthermore, this assay endpoint can be referred to as a primary readout, because this assay has produced multiple assay endpoints where this one serves a reporter gene function. To generalize the intended target to other relatable targets, this assay endpoint is annotated to the nuclear receptor intended target family, where the subfamily is non-steroidal.
Human liver HepG2 cells are transiently transfected with multiple reporter transcription units (MRTUs) in 6-well plates using FuGene 6 reagent (Roche; 3 ml FuGene/1 mg DNA). The MRTU constructs are regulated by a cis-regulating element (promoter). […] A major difference between the CIS and TRANS system is that in CIS activities of endogenous TFs are measured, whereas the TRANS assay evaluates changes in activities of exogenous, chimeric NR-Gal4 proteins. […] At the end of 24 hour incubation, total RNA was isolated using TriZol reagent (Invitrogen). The isolated RNA is then reverse-transcribed using oligo(dT) primer and Mo-MLV reverse transcriptase (Invitrogen) with DNAse I (Ambion) treatment for 30 min. The one-tenth of the produced cDNA was amplified by PCR using Taq DNA polymerase (Invitrogen) and two reporter sequence-specific primers. The PCR products were fluorescently labeled by primer extension with 6-arboxyfluorescein (6-FAM) 5'-labeled reporter sequence-specific primer (2 min at 95 C, 20 s at 68 C and 10 min at 72 C) and these products were digested with 5U of HpaI (New England Biolabs) for 2h at 37 C. The fragments were purified using Qiaquick PCR columns (Qiagen), analyzed on an ABI 3130xL genetic analyzer (Applied Biosystems) with peak positions identified by using a set of X-rhodamine (ROX)-labeled MapMarker1000 molecular weight standards (BioVentures). The raw capillary electrophoresis data was processed using Attagraph software (Attagene).

Row | SMILES | AC50 | outcome
1 | CCCCCCCC#N | inconclusive: 6.73 µM | –
3 | CC1CCCCC1 | inconclusive: 100 µM | –
4 | OCCCCC(O)CO (stereo not given) | inconclusive: 95.5 µM | –
5 | COC(=O)C1CCC(C(=O)OC)CC1 (stereo not given) | inconclusive: 100 µM | inactive
7 | CC(=O)c1ccc2ccccc2c1 | inconclusive: 0.717 µM | –
8 | c1ccc2[nH]ccc2c1 | inconclusive: 100 µM | –
9 | CC(O)COCC(C)O (stereo not given) | inconclusive: 19.5 µM | –
11 | COc1ccc(Cl)cc1C | – | inactive
14 | C=C(C)C(=O)Nc1ccc(Cl)c(Cl)c1 | – | inactive
15 | CC(=O)CCC(=O)O | inconclusive: 100 µM | –
17 | CCC(C)=O | inconclusive: 5.5 µM | –
18 | CCOC(=O)C(C)(C)Oc1ccc(Cl)cc1 | inconclusive: 0.00914 µM | –
20 | c1ccc(Oc2ccccc2)cc1 | – | inactive

Row | SMILES | AC50 | outcome
22 | CN1C(=O)N(C)C(O)C1O (stereo not given) | inconclusive: 3.96 µM | –
23 | O=C1OC(=O)c2cc(-c3ccc4c(c3)C(=O)OC4=O)ccc21 | inconclusive: 16.3 µM | –
24 | COc1cccc(OC)c1 | – | inactive
25 | O=C=Nc1cccc2c(N=C=O)cccc12 | inconclusive: 60 µM | –
26 | CC1=CC(C)C(C=O)C(C)C1 (stereo not given) (tested in a mixture with another compound) | inconclusive: 26 µM | –
27 | CCCN(CCC)S(=O)(=O)c1ccc(C(=O)O)cc1 | – | inactive
28 | C[C@H]1C[C@H]2[C@@H]3CCC4=CC(=O)C=C[C@]4(C)[C@@]3(F)[C@@H](O)C[C@]2(C)[C@@]1(O)C(=O)COP(=O)(O)O | – | inactive
29 | COc1ccccc1OCC(O)CO (stereo not given) | inconclusive: 17.3 µM | –
30 | C=CC(C)(O)CC/C=C(\C)CC (stereo not given) | inconclusive: 1.01 µM | –
31 | CCCCCCCCCC(=O)O | – | inactive
32 | CCCCCCC(C=O)=Cc1ccccc1 | – | inactive
33 | CCOC(=O)NCCOc1ccc(Oc2ccccc2)cc1 | – | inactive
34 | CCCCNc1ccc(NCCCC)c2c1C(=O)c1ccccc1C2=O | inconclusive: 25 µM | –
35 | CC1=CC[C@@H]2C[C@H]1C2(C)C | – | inactive
36 | CO[Si](OC)(c1ccccc1)c1ccccc1 | – | inactive
38 | Clc1ccccn1 | inconclusive: 0.0827 µM | –
39 | O=S(=O)(O)c1cccc2c(S(=O)(=O)O)cccc12 | – | inactive

Quoted at random: 2 entries already listed.
Row | SMILES | AC50 | outcome
27 | CCCN(CCC)S(=O)(=O)c1ccc(C(=O)O)cc1 | – | inactive
25 | O=C=Nc1cccc2c(N=C=O)cccc12 | inconclusive: 60 µM | –
